# Results of single-concentration screens

Source: ChEMBL document CHEMBL3988442, “University of Dundee, Small-Polar-MMV Screening Library” (2021).

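Whole-parasite assay of Trypanosoma brucei over 72 hours; the read-out is not stated. Compounds at 10 µM. Higher reads as stronger inhibition (inferred: compounds with an IC50 in retests scored well above the rest). Values scatter widely below zero; nearly all retest evidence comes from the higher of the two concentrations used. Size under these conditions: about 2,700 compounds, about 14 of them at 50% or above in at least one test.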

Results are given as percent effect.
The record does not define 0% and 100%; most values in the screen are far below 50% and negative numbers occur (in some assays of this library far below -100).
The compounds are a random part of those screened.

{"compound": "COc1c(C)cnc(CN2CCCC2Cn2nc(C)nc2C)c1C", "stereo": "centres unmarked", "effect": 28.56}
{"compound": "CCc1noc(C(C)N2CCC(C)CC2)n1", "stereo": "centres unmarked", "effect": -23.81}
{"compound": "Cc1cc(C)n(CC2CN(Cc3cc(C)on3)CCO2)n1", "stereo": "centres unmarked", "effect": -16.61}
{"compound": "Cc1cc(CN2CCN(CC(O)c3ccc(C)c(C)c3)CC2)no1", "stereo": "centres unmarked", "effect": -54.56}
{"compound": "Cc1cc(NC(=O)NCC(O)COc2ccccc2)n(C)n1", "stereo": "centres unmarked", "effect": -60.13}
{"compound": "O=C(NCc1nnc2n1CCC2)N1CCc2sccc2C1", "effect": -41.64}
{"compound": "CCc1sc(C(=O)N2CCC(Nc3ccc(C)nn3)CC2)cc1C", "effect": -32.6}
{"compound": "Cn1cnc2c1CCN(Cc1csc(C3CCCC3)n1)C2", "effect": -60.76}
{"compound": "O=C(NCCCNc1ccc(C(F)(F)F)cn1)c1ccc(F)cc1", "effect": -67.47}
{"compound": "Cc1cc(CN2CCCC2Cn2cccn2)no1", "stereo": "centres unmarked", "effect": -73.58}
{"compound": "O=C(c1cccnc1N1CCOCC1)N1CCCC(n2cncn2)C1", "stereo": "centres unmarked", "effect": -19.59}
{"compound": "CCN1CCN(c2ccc(CNC(=O)c3sccc3C)cn2)CC1", "effect": -11.29}
{"compound": "CCc1n[nH]c(C2CN(C(=O)c3ccc(Cl)cn3)CCO2)n1", "stereo": "centres unmarked", "effect": -21.47}
{"compound": "COCCN1CCC(NCc2ccc(F)cc2F)C1", "stereo": "centres unmarked", "effect": -58.9}
{"compound": "O=C(O)c1cc(S(=O)(=O)Nc2ccc(F)c(Cl)c2)cc2c1OCCO2", "effect": -35.53}
{"compound": "COCc1ccc(C(=O)N2CCCN(Cc3cscn3)CC2)cc1", "effect": -32.59}
{"compound": "Cc1ccc(-c2nc(CC(=O)N3CCN(c4cnccn4)CC3)cs2)o1", "effect": -18.06}
{"compound": "Cc1cccc2nc(CN3CCCC3Cn3cccn3)cn12", "stereo": "centres unmarked", "effect": -26.59}
{"compound": "CCc1cnc(CN2CCC(N(Cc3noc(CC)n3)C(C)=O)C2)o1", "stereo": "centres unmarked", "effect": -79.13}
{"compound": "Cc1cc(F)ccc1CNCc1cccc(C(=O)N2CCCC2)c1", "effect": -32.1}
{"compound": "Cc1noc(C(C)C)c1C(=O)NCCCN1CCNCC1.Cl", "effect": -28.69}
{"compound": "Cc1cc(C)c(CNC(=O)NCC2CCCOC2)c(=O)[nH]1", "stereo": "centres unmarked", "effect": -5.749}
{"compound": "COc1ccc(C(=O)NCCNC(=O)c2scnc2Cl)cc1", "effect": 11.06}
{"compound": "Cc1nnc(C2Cc3ccccc3CN2Cc2nc(C(C)C)no2)o1", "stereo": "centres unmarked", "effect": -49.58}
{"compound": "C1CN(Cc2noc(C3CC3)n2)CCN(Cc2nnc(C3CC3)o2)C1", "effect": -6.569}
{"compound": "CCc1nccn1C1CCCN(C(=O)Cc2cn3ccsc3n2)C1", "stereo": "centres unmarked", "effect": -55.28}
{"compound": "Cc1ccc(-c2nc(CN3CCN(CC(=O)N(C)C)CC3)cs2)o1", "effect": -22.53}
{"compound": "CC(=O)Nc1nc(C(=O)N2CCCC2Cn2cccn2)cs1", "stereo": "centres unmarked", "effect": -41.49}

3 of the entries, repeated:

Result for CCc1sc(C(=O)N2CCC(Nc3ccc(C)nn3)CC2)cc1C was -32.6%.
Result for Cc1ccc(-c2nc(CN3CCN(CC(=O)N(C)C)CC3)cs2)o1 was -22.53%.
Result for Cn1cnc2c1CCN(Cc1csc(C3CCCC3)n1)C2 was -60.76%.